Results: PMC11719606, “Exploring the Inhibition of Toxoplasma gondii α-Carbonic Anhydrase by Sulfonamides: Insights into Potential Drug Targeting” (International Journal of Molecular Sciences, 2024)
Read-outs that look alike come from different tables or passages of the source.

Target: T1, Tg_CA (Toxoplasma gondii, UniProt S8F479)
T1 construct: gene TGME49_259950; alpha-CA domain, residues 487-830 of an 861-residue protein; E. coli BL21(DE3) codon-plus; about 47 kDa
T1 sequence (S8F479 487-830): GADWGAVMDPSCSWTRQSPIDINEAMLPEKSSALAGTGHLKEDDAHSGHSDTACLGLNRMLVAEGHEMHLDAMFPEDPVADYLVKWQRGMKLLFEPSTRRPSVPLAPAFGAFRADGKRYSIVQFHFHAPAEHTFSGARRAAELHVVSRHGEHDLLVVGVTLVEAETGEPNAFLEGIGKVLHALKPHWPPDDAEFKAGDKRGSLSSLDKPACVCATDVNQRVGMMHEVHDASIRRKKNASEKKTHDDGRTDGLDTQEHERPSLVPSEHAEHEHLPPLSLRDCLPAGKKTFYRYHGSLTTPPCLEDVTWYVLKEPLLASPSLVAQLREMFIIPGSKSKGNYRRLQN
Experiment: stopped-flow CO2 hydration, phenol red, Cheng-Prusoff
Format: biochemical

SMILES | Ki (read-out: KI (nM) ^a / Tg_CA) [nM] | Ki [nM]
CC(=O)Nc1nnc(S(N)(=O)=O)s1 [AAZ, Acetazolamide] | 45.7 | –
CCN[C@H]1C[C@H](C)S(=O)(=O)c2sc(S(N)(=O)=O)cc21 [DZA] | – | 95.3
